The text below walks through data of PMC11559001.

No constants are given. Whether binding was seen depends on the method and setting. Binding seen in cells or lysates may run through a third protein. A yes stands for co-enrichment or nearness to the bait. Other partners may have been found. For some of these results: No binding means not detected with the bait. Tags and fused reporters may be left off the sequences shown.

What all share (assay): affinity purification with mass spectrometry; purified MBP-labelled TF homolog incubated with total protein of its corresponding M. xanthus deletion cells; Dextrin Beads; wash 25 mM Tris-HCl, 200 mM NaCl, pH 7.8; eluted with 10 mM maltose; detected by MS; only the target purified
Assay [1] concerns the target T1, MXAN_6153-MBP (M. xanthus DK1622) (UniProt Q1CZ89).
T1 sequence: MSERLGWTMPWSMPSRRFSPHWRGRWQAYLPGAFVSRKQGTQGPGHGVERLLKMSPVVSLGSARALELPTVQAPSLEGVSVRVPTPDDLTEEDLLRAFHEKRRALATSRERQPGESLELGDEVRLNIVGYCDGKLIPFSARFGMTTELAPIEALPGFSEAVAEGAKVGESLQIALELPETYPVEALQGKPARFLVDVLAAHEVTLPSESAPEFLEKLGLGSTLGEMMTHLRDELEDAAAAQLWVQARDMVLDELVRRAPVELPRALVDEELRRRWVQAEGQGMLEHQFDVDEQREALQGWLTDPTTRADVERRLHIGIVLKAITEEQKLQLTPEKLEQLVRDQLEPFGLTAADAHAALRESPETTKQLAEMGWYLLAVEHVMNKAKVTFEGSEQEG

For assay [2], the target named is T2, MXAN_2013-MBP (M. xanthus DK1622) (UniProt Q1DAT1).
T2 sequence: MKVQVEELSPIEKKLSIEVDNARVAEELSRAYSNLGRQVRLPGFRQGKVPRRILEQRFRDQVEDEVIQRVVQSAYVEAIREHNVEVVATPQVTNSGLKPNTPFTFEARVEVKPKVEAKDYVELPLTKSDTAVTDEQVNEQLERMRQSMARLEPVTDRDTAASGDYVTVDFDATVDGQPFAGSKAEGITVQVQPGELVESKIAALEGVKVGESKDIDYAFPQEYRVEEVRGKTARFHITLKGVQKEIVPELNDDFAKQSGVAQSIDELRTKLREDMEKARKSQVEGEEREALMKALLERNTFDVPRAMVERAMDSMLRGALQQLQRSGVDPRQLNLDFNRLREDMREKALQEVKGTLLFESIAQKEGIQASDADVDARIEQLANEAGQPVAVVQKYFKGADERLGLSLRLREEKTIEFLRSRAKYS

For assay [3], the target named is T3, MXAN_1178-MBP (M. xanthus DK1622) (UniProt Q1DD35).
T3 sequence: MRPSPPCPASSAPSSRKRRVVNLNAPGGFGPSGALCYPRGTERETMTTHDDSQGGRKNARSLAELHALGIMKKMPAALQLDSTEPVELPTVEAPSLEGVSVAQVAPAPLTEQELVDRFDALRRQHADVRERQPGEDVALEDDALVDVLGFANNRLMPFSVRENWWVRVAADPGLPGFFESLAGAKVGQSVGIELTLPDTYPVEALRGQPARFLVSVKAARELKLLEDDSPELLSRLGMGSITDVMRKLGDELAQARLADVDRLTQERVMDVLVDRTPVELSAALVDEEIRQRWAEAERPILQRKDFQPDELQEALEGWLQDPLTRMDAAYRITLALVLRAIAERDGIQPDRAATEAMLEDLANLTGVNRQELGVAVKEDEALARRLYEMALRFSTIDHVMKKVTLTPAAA

The target in assay [4] is T4, MXAN_1713-MBP (M. xanthus DK1622) (UniProt Q1DBK9).
T4 sequence: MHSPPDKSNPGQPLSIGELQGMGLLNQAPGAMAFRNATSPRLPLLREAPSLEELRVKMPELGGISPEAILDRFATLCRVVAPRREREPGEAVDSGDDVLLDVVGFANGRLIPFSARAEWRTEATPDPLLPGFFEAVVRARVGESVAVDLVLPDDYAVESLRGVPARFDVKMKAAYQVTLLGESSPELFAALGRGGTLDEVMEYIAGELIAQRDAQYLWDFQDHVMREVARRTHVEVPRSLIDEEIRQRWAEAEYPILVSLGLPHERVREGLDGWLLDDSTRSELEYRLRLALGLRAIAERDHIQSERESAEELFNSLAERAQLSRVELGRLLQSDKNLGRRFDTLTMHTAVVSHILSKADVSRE

With OmpA, the binding entry in assay [1] is “binds”; in assay [2], “no binding”; in assay [3] it was “binds”; in assay [4], “binds”.
